# Assay results reported in PubChem BioAssay AID2685 (National Center for Advancing Translational Sciences (NCATS), 2010).
# About 2,100 (0.66%) of roughly 320,000 compounds were called active. Inconclusive results, whose numbers are uncertain, are shown with a selection of clear calls. Calls come from the whole dose curve; as a rule, active = well fitted inhibition curve with a large enough effect in the signal ratio, with a control signal flat (not every such curve was filed as active); inconclusive = small, poorly fitted or top-dose-only effect, or effect the other way, or a change in a side signal; inactive = flat fitted curve, though single readings scatter; the % refers to the signal ratio. Potencies of inconclusive entries are doubtful fits and often do not repeat.
# Assay: qHTS Assay for Lipid Storage Modulators in Drosophila S3 Cells
# Conditions: BODIPY lipid droplet fluorescence, 18-24 h, cells fed with added oleic acid; lipid storage change, negative = inhibition: at 46.1 µM (top of the series) unless noted
# Summary of the method: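 Laser-scanning cytometry quantifies lipid droplet accumulation (500–530 nm total intensity; droplet/cell object ratio) in oleic acid-fed (400 uM added) Drosophila S3 cells treated with a concentration series. 20 uM Triacsin C defined 100% inhibition.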
# % is set by controls: 0 for no effect and ±100 for the full control effect; potency is the fitted concentration of half-maximal effect.
SMILES,"lipid storage change, negative = inhibition",Potency
COc1ccc(CN2C(=O)c3cccnc3C2=O)cc1S(=O)(=O)NCc1ccccc1,inconclusive: 163%,–
O=C(Nc1ccccc1N1CCCC1)c1ccc2c(c1)OCO2,–,"inconclusive: 0.651 µM [rising, full curve]"
CCCCn1c(=O)[nH]c(=O)c2c1nc(COC(=O)c1c(C)noc1C)n2CCC,inconclusive: 13.5%,–
CN(C)S(=O)(=O)c1ccc(C(=O)OCCN=C2NS(=O)(=O)c3ccccc32)cc1,inconclusive: -12.8%,–
Nc1nc2nc(-c3ccccc3)cc(=O)n2[nH]1,inconclusive: -6.41%,–
Cc1ccc(NC(=O)C2CCN(S(=O)(=O)c3ccc4c(c3)CCCC(=O)N4)CC2)c(Br)c1,–,"inconclusive: 10.3 µM [activator, partial curve]"
Cc1ccccc1N1C(=O)Cc2ccccc2C1=O,–,"inconclusive: 0.206 µM [activator, single point]"
COCCCNC(=O)CSc1nc2cc(S(=O)(=O)N3CCCCC3)ccc2o1,inconclusive,–
Cc1cc(C(=O)CCC(=O)N2CCN(S(=O)(=O)c3cccs3)CC2)c(C)s1,–,"inconclusive: 20.6 µM [rising, partial curve]"
CCn1c(=O)c(C(=O)Nc2ccc(C)cc2)c(O)c2ccccc21,inconclusive: 1.25%,–
COc1ccc(/C=C/C(=O)OCC(=O)NC2CCCC2)c(OC)c1,inconclusive: -3.39%,–
O=C(CN(CCc1ccccc1)C(=O)Cn1nnc(-c2cccs2)n1)NCc1ccco1,–,"inconclusive: 0.0046 µM [activator, full curve, poor fit]"
Nc1nc2nc(-c3cccs3)cc(C(F)(F)F)n2n1,inconclusive: 18.7%,–
O=C(Nc1ccc(F)cc1)c1ccc(C(=O)N2CCOCC2)cc1,inconclusive: 31.1%,–
COc1ccc2c(c1)C1=NN(/C(C)=C/C(C)=O)C(c3ccc(F)cc3)C1CC2 (stereo not given),–,"inconclusive: 6.51 µM [falling, single point]"
CSc1ccc(CNC(=O)C2Cc3cc(S(=O)(=O)N4CCCC4)ccc3N2C(C)=O)cc1 (stereo not given),–,"inconclusive: 29.1 µM [activator, single point]"
O=C(CCNS(=O)(=O)c1ccc(Br)cc1)NCc1ccc2c(c1)OCO2,inconclusive: -49.3%,–
NC(N)=N/N=C/c1ccccc1OC(F)F,inconclusive: 42.1%,–
COc1cccc(CN2CCC(C(=O)N3CCN(c4ccccc4F)CC3)CC2)c1OC,inconclusive: -3.44%,–
Cc1ccc(CNC(=O)C2CCN(S(=O)(=O)c3ccc4c(c3)CC(C)N4C(=O)C3CC3)CC2)cc1 (stereo not given),–,"inconclusive: 23.1 µM [activator, single point]"
CC(C)OP(=O)(OC(C)C)C(C)NC(=O)Cc1ccccc1 (stereo not given),inconclusive: 10.6%,–
Cc1cc(C)n(Cc2cccc(C(=O)N/N=C/c3ccncc3)c2)n1,inconclusive: 8.98%,–
CN(C(=O)COC(=O)c1ccc(Cl)s1)C1(C#N)CCCCC1,inconclusive,–
CCOc1ccccc1CN1CCNC(=O)C1CC(=O)NC1CCCCC1 (stereo not given),inconclusive: -20.1%,–
Cc1cc(C(=O)N/N=C/c2cc(Br)ccc2OC(=O)c2ccc(Br)cc2)n[nH]1,–,"inconclusive: 18.4 µM [falling, single point]"

# Already shown: entries from further up.
SMILES,"lipid storage change, negative = inhibition",Potency
Cc1ccccc1N1C(=O)Cc2ccccc2C1=O,–,"inconclusive: 0.206 µM [activator, single point]"
COCCCNC(=O)CSc1nc2cc(S(=O)(=O)N3CCCCC3)ccc2o1,inconclusive,–
Cc1cc(C(=O)CCC(=O)N2CCN(S(=O)(=O)c3cccs3)CC2)c(C)s1,–,"inconclusive: 20.6 µM [rising, partial curve]"
CCn1c(=O)c(C(=O)Nc2ccc(C)cc2)c(O)c2ccccc21,inconclusive: 1.25%,–
COc1ccc(/C=C/C(=O)OCC(=O)NC2CCCC2)c(OC)c1,inconclusive: -3.39%,–
O=C(CN(CCc1ccccc1)C(=O)Cn1nnc(-c2cccs2)n1)NCc1ccco1,–,"inconclusive: 0.0046 µM [activator, full curve, poor fit]"
Nc1nc2nc(-c3cccs3)cc(C(F)(F)F)n2n1,inconclusive: 18.7%,–
O=C(Nc1ccc(F)cc1)c1ccc(C(=O)N2CCOCC2)cc1,inconclusive: 31.1%,–
COc1ccc2c(c1)C1=NN(/C(C)=C/C(C)=O)C(c3ccc(F)cc3)C1CC2 (stereo not given),–,"inconclusive: 6.51 µM [falling, single point]"
CSc1ccc(CNC(=O)C2Cc3cc(S(=O)(=O)N4CCCC4)ccc3N2C(C)=O)cc1 (stereo not given),–,"inconclusive: 29.1 µM [activator, single point]"
O=C(CCNS(=O)(=O)c1ccc(Br)cc1)NCc1ccc2c(c1)OCO2,inconclusive: -49.3%,–
NC(N)=N/N=C/c1ccccc1OC(F)F,inconclusive: 42.1%,–
COc1cccc(CN2CCC(C(=O)N3CCN(c4ccccc4F)CC3)CC2)c1OC,inconclusive: -3.44%,–
Cc1ccc(CNC(=O)C2CCN(S(=O)(=O)c3ccc4c(c3)CC(C)N4C(=O)C3CC3)CC2)cc1 (stereo not given),–,"inconclusive: 23.1 µM [activator, single point]"
CC(C)OP(=O)(OC(C)C)C(C)NC(=O)Cc1ccccc1 (stereo not given),inconclusive: 10.6%,–
Cc1cc(C)n(Cc2cccc(C(=O)N/N=C/c3ccncc3)c2)n1,inconclusive: 8.98%,–
CN(C(=O)COC(=O)c1ccc(Cl)s1)C1(C#N)CCCCC1,inconclusive,–
CCOc1ccccc1CN1CCNC(=O)C1CC(=O)NC1CCCCC1 (stereo not given),inconclusive: -20.1%,–

# (cont.)

SMILES,"lipid storage change, negative = inhibition",Potency
Cc1cccn2c(=O)c3cc(C(=O)N4c5ccccc5CC4C)n(C)c3nc12 (stereo not given),inconclusive: 1.12%,–
Cc1ccc(C)c(NC(=O)CCN2CCC(C)CC2)c1,–,"inconclusive: 0.092 µM [activator, full curve]"
CCc1ccc(OCC(=O)NNC(=O)c2cc(S(=O)(=O)N3CCOCC3)ccc2N2CCCC2)cc1,inconclusive: 6.87%,–
COc1ccc(CCNC(=O)C2CCCN2C(=O)Nc2cccc(C(C)=O)c2)cc1OC (stereo not given),inconclusive: -42.7%,–
O=C(NCCCc1nc2ccccc2[nH]1)c1cccs1,–,"inconclusive: 1.46 µM [activator, partial curve]"
CCOC(=O)/C(C(N)=NCCCO)=C(/O)c1ccccc1,inconclusive: 15.2%,–
COc1cccc(N2CCN(S(=O)(=O)c3c(C)[nH]c(C)c3C(=O)N3CCCCC3)CC2)c1,inconclusive: 4.63%,–
O=C(C1=C(O)C(=O)N(c2ccccc2)C1c1ccc([N+](=O)[O-])cc1)c1cccs1 (stereo not given),inconclusive: 15.7%,–
NC(=O)CC(NC(=O)Cc1cccc2ccccc12)c1ccc(N2CCC(N3CCCCC3)CC2)c([N+](=O)[O-])c1 (stereo not given),–,"inconclusive: 13 µM [falling, partial curve]"
Oc1c(C(c2ccccc2)N2CCN(Cc3ccccc3)CC2)sc2ncnn12 (stereo not given),–,"inconclusive: 0.731 µM [falling, single point]"
C/C(Cl)=C/Cn1c(SC(C)C)nc2c1c(=O)[nH]c(=O)n2C,–,"inconclusive: 20.6 µM [activator, single point]"
Nc1nc(NCC2CCCO2)nc(Nc2ccc(F)cc2)c1[N+](=O)[O-] (stereo not given),–,"inconclusive: 6.51 µM [activator, full curve, poor fit]"
COc1ccccc1C(=O)OCC(=O)NC(=O)NCc1ccccc1,inconclusive: 11%,–
C/C=C(/C)C(=O)O[C@@H]1c2c(ccc3ccc(=O)oc23)O[C@@H]1C(C)(C)OC(=O)/C(C)=C\C,inconclusive: -3.18%,–
Cn1ncc(Cl)c1C(=O)NCc1ccc(Cl)cc1,–,"inconclusive: 18.4 µM [falling, partial curve, poor fit]"
O=C(Cc1ccccc1)N/N=C/c1ccccc1OCc1ccc(Cl)cc1,inconclusive: -65.3%,–
Cc1ccc(NC(=S)N2CCCC(c3ccccc3)=N2)cc1,inconclusive: 12.7%,–
COc1ccccc1NC(=O)C[n+]1ccccc1C,inconclusive: -61.5%,–
COc1ccc(NC(=O)CN(C)C(=O)c2ccc(N3CCCCC3)c([N+](=O)[O-])c2)cc1,–,"inconclusive: 0.651 µM [falling, full curve, poor fit]"
Cc1ccc(C(=O)Nc2ccc3nccnc3c2)cc1,inconclusive: -22.2%,–
CC(Oc1cc2oc(=O)c3c(c2cc1Cl)CCC3)C(=O)NCCCN1CCCC1=O (stereo not given),–,active: 1.64 µM
C[C@H](OC(=O)N1CCN(C(c2ccccc2)c2ccccc2)CC1)[C@@H]1O[C@@]2(C)CCC[C@H]1O2,–,"inconclusive: 23.1 µM [activator, partial curve, poor fit]"
CCOC(=O)c1sc(/N=C/c2ccc(O)cc2O)cc1C,inconclusive: -48%,–
Nc1ccc2c(c1)CC(=O)c1ccccc1S2,inconclusive: -16%,–
COc1ccc(CCNC(=O)C/C(C)=N/NC(=O)C2CCCCC2)cc1OC,inconclusive: 8.18%,–

SMILES,"lipid storage change, negative = inhibition",Potency
CCn1c(Oc2ccccc2C)nc2c1c(=O)n(C)c(=O)n2C,inconclusive: 90.5%,–
O=C(CCN1CCN(C/C=C/c2ccccc2)CC1)Nc1cccc(F)c1,inconclusive: -67.4%,–
COc1ccccc1C(=O)Nc1ccc(OCC(=O)N2CC(C)CC(C)C2)cc1 (stereo not given),–,"inconclusive: 3.66 µM [activator, single point]"
Cn1c(=O)c2c(nc(NCCO)n2C)n(C)c1=O,–,"inconclusive: 29.1 µM [falling, single point]"
Cc1cc(NC(=O)c2ccc(NC(=O)CC(C)C)cc2)no1,inconclusive: -1.01%,–
Cc1cc(C)cc(NC(=O)C(=S)NCc2ccccc2)c1,inactive: -0.376%,–
CCSc1ncc(Cl)c(C(=O)Nc2ccccc2F)n1,inconclusive: -23.5%,–
COC(=O)c1cc(S(=O)(=O)N2CCN(Cc3ccccc3)CC2)c[nH]1,inconclusive: -32.7%,–
O=C1CC(N2CCSCC2)C(=O)N1c1ccc(F)cc1 (stereo not given),inconclusive: 12.8%,–
COC(=O)c1c(NC(=O)CC2NCCNC2=O)sc2c1CCCC2 (stereo not given),inconclusive: 20.4%,–
COc1ccc2c(CC(=O)Nc3nc(C)cs3)coc2c1,inconclusive: 80%,–
CC/C(C)=N/NS(=O)(=O)c1ccc(C)c([N+](=O)[O-])c1,–,"inconclusive: 8.2 µM [activator, partial curve, poor fit]"
CCOC(=O)CC1C(=O)NCCN1S(=O)(=O)c1ccc(C)cc1 (stereo not given),inconclusive: 5.05%,–
Cc1ccc2c(c1)N(CCC(=O)NCCN1CCOCC1)C(=O)CO2,inconclusive: 53.5%,–
Cc1onc(-c2ccccc2)c1C(=O)OCC(=O)Nc1cc(S(=O)(=O)N2CCOCC2)ccc1Cl,inconclusive: 69.9%,–
O=C(Nc1cccc(F)c1)c1ccc(S(=O)(=O)N2CCCC2)cc1,inconclusive: -11.3%,–
COc1ccc(/C=N/NC(=O)c2ccc(CN3C(=O)c4cccc5cccc3c45)cc2)cc1O,inconclusive: -10.4%,–
CNC(=S)N(CCN(C)C)Cc1cc2cc3c(cc2[nH]c1=O)OCO3,inconclusive: -25%,–
Cc1ccnc(NC(=O)C2CCN(S(=O)(=O)c3ccc(Cl)c(C(F)(F)F)c3)CC2)c1,–,"inconclusive: 1.03 µM [falling, full curve]"
O=C(Cn1ccc2ccccc2c1=O)N1CCN(Cc2ccc3c(c2)OCO3)CC1,–,"inconclusive: 9.2 µM [cytotoxic, partial curve, poor fit]"
COC(=O)c1ccncc1C(=O)Nc1ccc(Oc2ncc(C(F)(F)F)cc2Cl)cc1,inactive: -11.6%,–
Cc1ccc(NC(=O)CN(Cc2ccccc2)S(C)(=O)=O)cc1C,inconclusive: -21.1%,–
O=C(CNCc1ccc(Cl)cc1)NCc1ccco1,–,"inconclusive: 0.92 µM [falling, full curve, poor fit]"
CCC(=S)/C=C1\Sc2ccccc2N1CCCS(=O)(=O)O,inconclusive: 58.3%,–
Cc1ccc(C(C)NC(=O)C2CCCC2)cc1C (stereo not given),–,"inconclusive: 29.1 µM [activator, single point]"
